Measurements reported in PubChem BioAssay AID652259 (Drosophila RNAi Screening Center, 2013)
The screen tested about 22,000 reagents; this is an unselected part of those that have a named target and a result. In the full data, 233 (1.1%) got an active call. 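Light values are raw, unnormalised plate reads; the ratio scores behind the reporter calls were not deposited.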 Entries without a mark were called inactive. A plus sign joins genes that one reagent is predicted to hit. Not stated in the record: the amount of reagent, the time to read-out, the dose of the treatment.

Assay: 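Genome-wide hunt for genes that control Wingless pathway activity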 (primary screen)
System: Drosophila clone 8 imaginal disc epithelial cells
Reagents: long dsRNA against Drosophila genes
Challenge: pathway stimulated by co-transfected Wingless expression plasmid
Measurement: 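Firefly luciferase from a tcf-site Wingless reporter, measured alongside co-transfected Renilla luciferase that tracks transfection; pathway stimulated by a Wingless plasmid; the firefly-to-Renilla ratio is not deposited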
Direction: firefly reporter light: higher = more Wg reporter light, before normalisation; Renilla control light: higher = more transfected or surviving cells
Rule for the call: 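Strong candidates differ from their plate mean by at least two out of four per-plate statistical tests; weak candidates meet just one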
Calls: active = candidate regulator (raises or lowers reporter); inactive = not a candidate

no.	target gene	DRSC id	reporter change call, replicate 1	firefly reporter light, replicate 1	firefly reporter light, replicate 2	Renilla control light, replicate 1	Renilla control light, replicate 2
1	CG12861	DRSC06201		10587		4155	
2	CG12861	DRSC21960		5.55e5	6.00e5	2.11e5	2.27e5
3	Cc2d2a (Coiled-coil and C2 domain containing 2A)	DRSC06750		5793		1952	
4	Cc2d2a (Coiled-coil and C2 domain containing 2A)	DRSC06779		5174		2086	
5	CG4404	DRSC19897		27763		10677	
6	CG1850	DRSC06762		2242	5580	529	2131
7	Orc5 (Origin recognition complex subunit 5)	DRSC03390		1416	4600	805	2257
8	Tret1-2 (Trehalose transporter 1-2)	DRSC07117		9221		3712	
9	CG33919	DRSC04940		22285		12684	
10	Atac2 (Ada2a-containing complex component 2)	DRSC02053		7018		3301	
11	CG9626	DRSC16525		5035		1828	
12	nrv3 (nervana 3)	DRSC03097		5179		1637	
13	Gpa2 (Glycoprotein hormone alpha 2)	DRSC21071		12393		7184	
14	S1P (Site-1 protease)	DRSC11810		17916		5895	
15	CG33695 + cana	DRSC01163		20672		8384	
16	CG33695 + cana	DRSC03503		2176	6786	828	2092
17	ValRS-m (Valyl-tRNA synthetase, mitochondrial)	DRSC10535		1491	5888	1297	1578
18	CG14929 + CG14930	DRSC02412		2708	6934	691	3686
19	cbt (cabut)	DRSC00655		8688		3308	
20	Fili (Fish-lips)	DRSC03907		11872		7808	
21	Fili (Fish-lips)	DRSC04132		1958	7056	770	2717
22	Fili (Fish-lips)	DRSC04445		1901	10003	689	2413
23	CG32201	DRSC22452		5.11e5	5.32e5	1.86e5	1.62e5
24	CG14130	DRSC10134		5532		1572	
25	Tpl94D (Transition protein-like 94D)	DRSC13593		3497		1703	
26	CG8840	DRSC00713		2668	5810	884	3133
27	Regnase-1 (Regnase 1)	DRSC14278		2864	6317	1048	1616
28	CG12702	DRSC19487		22220		1536	
29	CG9630	DRSC16527		3415		1767	
30	Dpck (Dephospho-CoA kinase)	DRSC12575		13552		3016	
31	lncRNA:roX2 (long non-coding RNA on the X 2)	DRSC22237		9.05e5	8.74e5	4.08e5	3.81e5
32	aos (argos)	DRSC11323		5333		2544	
33	CG30419	DRSC04208		2952	9728	962	3562
34	CG30419	DRSC04209		4868	8676	1143	3541
35	CG30419	DRSC22519		9.57e5	9.33e5	4.38e5	4.12e5
36	CG7829	DRSC16322		7320		2668	
37	fat-spondin	DRSC07617		12496		3408	
38	CG13314	DRSC09985		903	8008	1046	2448
39	nerfin-1 (nervous fingers 1)	DRSC08729		5957		2856	
40	CG6055	DRSC02923		2679	8448	864	3027
41	LManI (Lysosomal alpha-mannosidase I)	DRSC02838		2595	6474	561	2964
42	Cpr60D (Cuticular protein 60D)	DRSC04492		2896	6778	827	1752
43	mRpL27 (mitochondrial ribosomal protein L27)	DRSC22568		6.11e5	7.01e5	2.10e5	1.43e5
44	CG6766	DRSC02991		2055	8005	1314	2657
45	CG8064	DRSC16373		1942	2962	1200	1420
46	CG3919	DRSC10389		7530		3808	
47	CG34266	DRSC08323		2150	8921	720	2661
48	wun2 (wunen-2)	DRSC07566		3425	11660	1186	4424
49	CG12851	DRSC04131		2931	5751	666	2125
50	CG5556	DRSC00687		4517	10579	1808	4374
51	CG8785	DRSC07266		10768		2608	
52	CG43312	DRSC11559		2680		1282	
53	blanks	DRSC09757		2016	8085	1252	3895
54	Hey (Hairy/E(spl)-related with YRPW motif)	DRSC07440		2256	4884	263	477
55	RpL35A (Ribosomal protein L35A)	DRSC12302		13561		2304	
56	S6k (Ribosomal protein S6 kinase)	DRSC11276		1684	6643	1652	4163
57	Tsp42Ec (Tetraspanin 42Ec)	DRSC06192		3077	4923	966	2140
58	CG11113	DRSC06039		2584	6692	608	2418
59	Nacalpha (Nascent polypeptide associated complex protein alpha subunit)	DRSC07477		11056		2937	
60	Nin (Ninein)	DRSC02007		6360		3061	
61	CG8851	DRSC00718		2101	4816	928	1817
62	CG11322	DRSC02142		3446	7197	1526	3505
63	CG7523	DRSC16254		2747	6416	1042	1844
64	retm (real-time)	DRSC03252		10422		4208	
65	TP53INP (Tumor protein p53 inducible nuclear protein)	DRSC08178		8306		2887	
66	TP53INP (Tumor protein p53 inducible nuclear protein)	DRSC22552		8.50e5	8.31e5	3.38e5	1.02e5
67	mRpS28 (mitochondrial ribosomal protein S28)	DRSC06939		5660		2086	
68	CG31391	DRSC16047		11049		2728	
69	CG42346	DRSC20622		25376		10311	
70	CG42346	DRSC20644		15128		8021	
71	Mkp3 (Mitogen-activated protein kinase phosphatase 3)	DRSC10084		5308		2605	
72	Mkp3 (Mitogen-activated protein kinase phosphatase 3)	DRSC10085		14566		4928	
73	l(2)34Fd (lethal (2) 34Fd)	DRSC01911		5349		1740	
74	CG8319	DRSC16407		9170		2353	
75	l(2)efl (lethal (2) essential for life)	DRSC04698		11880		3284	
76	CG13311	DRSC09982		1529	5206	1138	1922
77	Sce (Sex combs extra)	DRSC16825		3020	8468	1072	1719
78	Tdrd3 (Tudor domain containing 3)	DRSC10016		5642		2745	
79	CG10752	DRSC09799		2811		1832	
80	prel (preli-like)	DRSC07271		14973		3749	
81	Mlh1	DRSC07473		9381		3155	
82	Pvr (PDGF- and VEGF-receptor related)	DRSC03080	Wg reporter activity raised (active)	18944		2856	
83	CG12974	DRSC11684		19778		6246	
84	CG12171	DRSC12200		8342		1997	
85	CG13438	DRSC06398		5590		2144	
86	CG4558	DRSC18369		2753	5296	1008	2072
87	CG8664	DRSC20116		18692		8738	
88	CG5662	DRSC19957		4160		1321	
89	mura (murashka)	DRSC16483		12150		2368	
90	mura (murashka)	DRSC16484	Wg reporter activity raised (active)	12476		1008	
91	Spn42Dc (Serpin 42Dc)	DRSC05010		1827	4839	72	2400
92	CG10550	DRSC14251		2359	5725	1092	625
93	CG31793	DRSC02605		1857	3399	256	1747

Records listed so far marked active, once more:
target gene	DRSC id	reporter change call, replicate 1	firefly reporter light, replicate 1	firefly reporter light, replicate 2	Renilla control light, replicate 1	Renilla control light, replicate 2
Pvr (PDGF- and VEGF-receptor related)	DRSC03080	Wg reporter activity raised (active)	18944		2856	
mura (murashka)	DRSC16484	Wg reporter activity raised (active)	12476		1008	
